From the supplement of paper PMC10849652
The other results are listed elsewhere or left out.

Protein sequences, listed by entry. Tags and fused reporters are not part of them. Lines headed by an entry give the natural chain unless they say otherwise; changes in a name come on top.
UniProt Q86WX3: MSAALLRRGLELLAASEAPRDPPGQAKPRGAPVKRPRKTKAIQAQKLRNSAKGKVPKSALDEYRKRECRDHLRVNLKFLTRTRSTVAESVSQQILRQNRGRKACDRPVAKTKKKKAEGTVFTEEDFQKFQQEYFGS
UniProt Q15287: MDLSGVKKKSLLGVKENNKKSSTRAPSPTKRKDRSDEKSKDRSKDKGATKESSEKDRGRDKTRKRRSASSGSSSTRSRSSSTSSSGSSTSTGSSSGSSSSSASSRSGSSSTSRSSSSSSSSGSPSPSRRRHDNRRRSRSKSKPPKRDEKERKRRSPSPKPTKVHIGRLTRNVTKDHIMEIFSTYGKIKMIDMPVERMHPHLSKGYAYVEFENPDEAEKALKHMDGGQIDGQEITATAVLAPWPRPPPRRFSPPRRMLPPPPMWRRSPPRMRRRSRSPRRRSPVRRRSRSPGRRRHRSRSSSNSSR
UniProt O60942: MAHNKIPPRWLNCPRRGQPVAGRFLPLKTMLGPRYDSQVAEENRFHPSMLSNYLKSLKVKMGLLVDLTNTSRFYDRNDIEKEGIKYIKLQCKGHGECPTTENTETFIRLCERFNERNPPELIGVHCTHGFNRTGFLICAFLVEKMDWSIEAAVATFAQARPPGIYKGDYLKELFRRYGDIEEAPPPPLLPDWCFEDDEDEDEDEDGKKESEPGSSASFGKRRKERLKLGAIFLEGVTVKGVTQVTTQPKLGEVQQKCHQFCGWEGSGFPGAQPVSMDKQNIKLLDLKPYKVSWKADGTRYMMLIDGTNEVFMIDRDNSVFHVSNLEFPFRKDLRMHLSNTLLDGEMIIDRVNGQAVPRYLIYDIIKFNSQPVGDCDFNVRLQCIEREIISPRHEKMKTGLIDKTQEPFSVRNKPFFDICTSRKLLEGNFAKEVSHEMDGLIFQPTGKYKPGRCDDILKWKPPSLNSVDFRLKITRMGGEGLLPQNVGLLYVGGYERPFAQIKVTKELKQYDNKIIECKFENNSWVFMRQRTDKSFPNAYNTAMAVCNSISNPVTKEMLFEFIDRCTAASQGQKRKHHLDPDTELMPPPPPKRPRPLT
UniProt Q92901: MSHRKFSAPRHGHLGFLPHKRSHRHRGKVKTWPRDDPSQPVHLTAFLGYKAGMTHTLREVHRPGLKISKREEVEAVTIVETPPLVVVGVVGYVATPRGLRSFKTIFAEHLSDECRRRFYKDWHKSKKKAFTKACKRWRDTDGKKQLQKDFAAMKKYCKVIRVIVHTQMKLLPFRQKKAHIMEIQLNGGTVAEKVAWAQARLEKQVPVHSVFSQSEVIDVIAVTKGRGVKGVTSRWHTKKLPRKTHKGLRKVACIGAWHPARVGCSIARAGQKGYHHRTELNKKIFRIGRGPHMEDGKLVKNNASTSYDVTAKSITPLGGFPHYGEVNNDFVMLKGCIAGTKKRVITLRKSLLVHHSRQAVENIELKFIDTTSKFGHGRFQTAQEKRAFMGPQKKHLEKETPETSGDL
UniProt Q9HB90, whole entry, looked up: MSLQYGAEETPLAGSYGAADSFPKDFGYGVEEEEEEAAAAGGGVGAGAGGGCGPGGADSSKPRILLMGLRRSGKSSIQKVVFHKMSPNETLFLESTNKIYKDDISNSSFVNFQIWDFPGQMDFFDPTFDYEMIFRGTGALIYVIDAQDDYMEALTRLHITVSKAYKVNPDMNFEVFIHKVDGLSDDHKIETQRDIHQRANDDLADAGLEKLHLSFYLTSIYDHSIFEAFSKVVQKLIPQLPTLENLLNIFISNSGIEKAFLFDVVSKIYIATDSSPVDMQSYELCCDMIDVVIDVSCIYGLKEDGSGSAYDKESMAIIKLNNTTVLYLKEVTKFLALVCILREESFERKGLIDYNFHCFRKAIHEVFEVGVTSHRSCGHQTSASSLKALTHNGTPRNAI
UniProt P10301: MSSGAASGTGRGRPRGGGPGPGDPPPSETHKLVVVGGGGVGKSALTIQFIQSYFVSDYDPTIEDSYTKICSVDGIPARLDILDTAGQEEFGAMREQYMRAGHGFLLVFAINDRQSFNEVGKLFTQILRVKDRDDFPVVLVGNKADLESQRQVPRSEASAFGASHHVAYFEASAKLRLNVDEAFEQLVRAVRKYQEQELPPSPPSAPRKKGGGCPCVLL
UniProt Q7L523, whole entry, looked up: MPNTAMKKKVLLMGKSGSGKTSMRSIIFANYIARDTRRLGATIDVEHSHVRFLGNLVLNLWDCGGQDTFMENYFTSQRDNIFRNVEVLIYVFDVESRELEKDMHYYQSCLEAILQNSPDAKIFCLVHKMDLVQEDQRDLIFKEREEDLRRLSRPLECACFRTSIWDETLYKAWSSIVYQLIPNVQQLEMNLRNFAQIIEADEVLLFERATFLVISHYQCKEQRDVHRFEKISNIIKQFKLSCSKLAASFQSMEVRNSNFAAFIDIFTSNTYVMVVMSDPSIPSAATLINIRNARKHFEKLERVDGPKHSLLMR
UniProt Q9NQG5: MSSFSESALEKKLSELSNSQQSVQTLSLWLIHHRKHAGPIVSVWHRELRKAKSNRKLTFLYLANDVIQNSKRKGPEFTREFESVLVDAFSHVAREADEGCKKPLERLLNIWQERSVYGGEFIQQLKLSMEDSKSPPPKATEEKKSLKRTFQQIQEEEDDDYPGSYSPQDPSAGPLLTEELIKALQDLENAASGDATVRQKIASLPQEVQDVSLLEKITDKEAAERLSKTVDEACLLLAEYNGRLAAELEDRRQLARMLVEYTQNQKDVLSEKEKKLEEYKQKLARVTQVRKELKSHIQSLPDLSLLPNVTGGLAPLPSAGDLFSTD
UniProt P04843: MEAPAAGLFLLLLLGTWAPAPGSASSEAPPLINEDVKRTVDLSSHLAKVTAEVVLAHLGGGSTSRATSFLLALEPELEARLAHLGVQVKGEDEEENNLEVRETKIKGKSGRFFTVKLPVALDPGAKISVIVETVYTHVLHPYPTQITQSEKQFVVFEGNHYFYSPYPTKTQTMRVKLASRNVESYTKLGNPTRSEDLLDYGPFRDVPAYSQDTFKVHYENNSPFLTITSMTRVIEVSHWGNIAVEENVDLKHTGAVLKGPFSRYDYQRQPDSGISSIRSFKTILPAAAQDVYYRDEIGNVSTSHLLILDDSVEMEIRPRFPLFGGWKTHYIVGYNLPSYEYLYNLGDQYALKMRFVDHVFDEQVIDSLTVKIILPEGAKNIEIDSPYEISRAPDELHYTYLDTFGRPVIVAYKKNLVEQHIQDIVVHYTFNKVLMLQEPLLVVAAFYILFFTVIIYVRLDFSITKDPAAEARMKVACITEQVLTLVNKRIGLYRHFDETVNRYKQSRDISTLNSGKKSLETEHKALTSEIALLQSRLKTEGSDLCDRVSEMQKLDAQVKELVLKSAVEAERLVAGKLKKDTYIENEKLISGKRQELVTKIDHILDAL
UniProt P35244: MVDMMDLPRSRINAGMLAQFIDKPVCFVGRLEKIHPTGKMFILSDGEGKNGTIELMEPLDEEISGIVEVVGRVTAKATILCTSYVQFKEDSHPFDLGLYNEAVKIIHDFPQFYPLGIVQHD
UniProt P15927: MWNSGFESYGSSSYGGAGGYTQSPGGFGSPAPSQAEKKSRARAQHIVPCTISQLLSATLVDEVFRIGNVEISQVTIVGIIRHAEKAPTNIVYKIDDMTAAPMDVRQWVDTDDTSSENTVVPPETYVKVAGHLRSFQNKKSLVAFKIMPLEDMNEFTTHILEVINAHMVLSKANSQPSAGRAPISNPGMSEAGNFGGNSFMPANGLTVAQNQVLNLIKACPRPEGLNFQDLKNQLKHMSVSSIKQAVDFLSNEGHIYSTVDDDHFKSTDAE
UniProt P13489: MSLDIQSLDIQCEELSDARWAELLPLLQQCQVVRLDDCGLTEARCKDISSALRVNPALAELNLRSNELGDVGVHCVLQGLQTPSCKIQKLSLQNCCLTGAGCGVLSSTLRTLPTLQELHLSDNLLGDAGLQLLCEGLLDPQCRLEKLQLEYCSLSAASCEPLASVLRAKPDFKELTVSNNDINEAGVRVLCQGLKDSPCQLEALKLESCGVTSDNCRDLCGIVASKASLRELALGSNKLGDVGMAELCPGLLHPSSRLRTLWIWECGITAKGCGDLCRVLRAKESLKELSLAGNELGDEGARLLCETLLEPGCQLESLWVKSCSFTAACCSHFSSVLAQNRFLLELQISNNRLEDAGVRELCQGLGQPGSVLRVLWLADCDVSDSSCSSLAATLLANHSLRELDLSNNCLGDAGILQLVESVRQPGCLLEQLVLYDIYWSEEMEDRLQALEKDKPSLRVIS
UniProt O75116: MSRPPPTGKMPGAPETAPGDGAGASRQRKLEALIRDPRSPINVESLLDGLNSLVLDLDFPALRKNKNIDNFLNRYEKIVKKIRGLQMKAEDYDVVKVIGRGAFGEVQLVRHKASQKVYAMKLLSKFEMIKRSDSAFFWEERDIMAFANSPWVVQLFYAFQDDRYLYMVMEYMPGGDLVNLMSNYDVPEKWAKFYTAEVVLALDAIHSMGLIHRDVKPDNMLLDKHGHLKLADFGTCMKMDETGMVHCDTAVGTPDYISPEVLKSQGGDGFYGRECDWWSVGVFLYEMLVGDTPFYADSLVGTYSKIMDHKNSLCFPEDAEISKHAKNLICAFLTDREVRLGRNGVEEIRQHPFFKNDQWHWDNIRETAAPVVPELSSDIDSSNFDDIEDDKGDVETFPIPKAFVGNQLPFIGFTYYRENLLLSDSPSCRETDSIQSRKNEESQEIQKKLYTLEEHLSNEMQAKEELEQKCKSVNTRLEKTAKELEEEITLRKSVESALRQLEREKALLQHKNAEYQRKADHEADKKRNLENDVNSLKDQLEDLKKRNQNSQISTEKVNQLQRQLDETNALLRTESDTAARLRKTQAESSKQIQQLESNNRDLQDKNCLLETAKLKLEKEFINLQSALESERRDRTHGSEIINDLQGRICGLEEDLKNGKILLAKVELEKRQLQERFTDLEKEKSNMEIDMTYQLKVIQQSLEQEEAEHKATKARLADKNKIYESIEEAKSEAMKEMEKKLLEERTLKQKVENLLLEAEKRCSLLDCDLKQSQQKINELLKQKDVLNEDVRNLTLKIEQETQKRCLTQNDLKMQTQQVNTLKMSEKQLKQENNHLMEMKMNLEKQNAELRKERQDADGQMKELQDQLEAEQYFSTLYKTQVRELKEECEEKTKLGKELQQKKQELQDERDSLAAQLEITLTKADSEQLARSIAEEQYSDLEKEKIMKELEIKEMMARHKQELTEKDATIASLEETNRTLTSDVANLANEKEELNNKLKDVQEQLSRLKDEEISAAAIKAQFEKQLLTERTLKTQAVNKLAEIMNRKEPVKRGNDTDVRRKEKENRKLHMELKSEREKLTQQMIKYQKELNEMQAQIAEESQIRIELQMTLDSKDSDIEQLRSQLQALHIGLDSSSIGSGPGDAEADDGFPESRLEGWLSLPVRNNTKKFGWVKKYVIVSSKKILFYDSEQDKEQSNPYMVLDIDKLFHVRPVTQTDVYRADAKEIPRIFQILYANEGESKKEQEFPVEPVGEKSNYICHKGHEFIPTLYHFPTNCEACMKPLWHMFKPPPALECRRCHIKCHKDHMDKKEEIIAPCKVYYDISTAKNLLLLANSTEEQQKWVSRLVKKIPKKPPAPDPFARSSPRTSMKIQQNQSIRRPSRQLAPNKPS
UniProt P10155: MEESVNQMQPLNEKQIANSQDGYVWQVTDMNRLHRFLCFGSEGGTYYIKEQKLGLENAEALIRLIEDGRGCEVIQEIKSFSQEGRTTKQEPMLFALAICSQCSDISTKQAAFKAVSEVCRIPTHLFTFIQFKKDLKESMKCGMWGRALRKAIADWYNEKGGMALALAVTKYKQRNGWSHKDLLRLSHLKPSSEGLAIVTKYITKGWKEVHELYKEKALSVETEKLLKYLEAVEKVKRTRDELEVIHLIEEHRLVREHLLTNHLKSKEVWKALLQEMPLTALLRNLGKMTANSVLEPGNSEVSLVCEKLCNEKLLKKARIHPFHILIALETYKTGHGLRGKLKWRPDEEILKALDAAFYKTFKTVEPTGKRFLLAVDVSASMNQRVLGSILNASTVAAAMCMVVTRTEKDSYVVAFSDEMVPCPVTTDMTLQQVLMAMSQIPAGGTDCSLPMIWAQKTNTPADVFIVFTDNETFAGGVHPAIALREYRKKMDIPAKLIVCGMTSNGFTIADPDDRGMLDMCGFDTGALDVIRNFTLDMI
UniProt Q9UBF6, whole entry, looked up: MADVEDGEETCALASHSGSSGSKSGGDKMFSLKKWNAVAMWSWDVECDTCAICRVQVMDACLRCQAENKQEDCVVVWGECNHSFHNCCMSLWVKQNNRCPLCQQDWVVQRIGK

What was measured:
Test in all cases: log2 fold change, soluble protein after heating vs DMSO (PISA); higher = thermal stabilisation; K562 cells, 10 uM, 30 min; active = over 0.2 and 3.5 SD of the protein, either way, in both replicates (recomputed)
[1] = compound: CC1=C(C=C(C=C1)NC(=O)C2=CC(=CC=C2)C(C)(C)C#N)NC3=CC4=C(C=C3)N=CN(C4=O)C
Method in brief: (§1)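 K562 cells at 2×10^6 cells/mL were exposed to 10 μM compound for 30 min, then aliquots were heated for 3 min across 48°C-58°C, pooled, and extracted in PBS containing 0.5% NP-40 at 4°C. The supernatant after 21,000xg for 90 min was taken as soluble protein and measured by TMTpro 16plex LC-MS/MS with channel sums equalised. Thermal stability is reported relative to control samples, with values from duplicates. Fold changes are given on a log2 scale.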

[2] = compound: CC1=C(C=C(C=C1)NC(=O)C2=CC(=CC=C2)N(C)C)NC(=O)C3=CC=C(C=C3)O
Method in brief: as §1

[3] = compound: CC1=CC=C(C=C1)SC2=C3C=C(SC3=CN=C2)C(=O)N
Method in brief: as §1

[4] = compound: CC1=NC(=CC=C1)C2=C(N=C(N2)C(C)(C)C)C3=CC4=NC=CN=C4C=C3
Method in brief: as §1

Nexturastat A = compound: CCCCN(Cc1ccc(C(=O)NO)cc1)C(=O)Nc1ccccc1 [Nexturastat A]
Method in brief: as §1

vemurafenib = compound: CCCS(=O)(=O)Nc1ccc(F)c(C(=O)c2c[nH]c3ncc(-c4ccc(Cl)cc4)cc23)c1F [vemurafenib]
Method in brief: as §1

[5] = compound: CCCS(=O)(=O)Nc1ccc(F)c(C(=O)c2c[nH]c3ncc(Cl)cc23)c1F
Method in brief: as §1

[6] = compound: CCCc1cc(C)[nH]c(=O)c1CNC(=O)c1cc(-c2ccnc(N3CCN(C)CC3)c2)cc2c1cnn2C(C)C
Method in brief: as §1

givinostat = compound: CCN(CC)Cc1ccc2cc(COC(=O)Nc3ccc(C(=O)NO)cc3)ccc2c1 [givinostat]
Method in brief: as §1

barasertib = compound: CCN(CCCOc1ccc2c(Nc3cc(CC(=O)Nc4cccc(F)c4)[nH]n3)ncnc2c1)CCOP(=O)(O)O [barasertib]
Method in brief: as §1

Target | log2 fold change [1] | log2 fold change [2] | log2 fold change [3] | log2 fold change [4] | log2 fold change (Nexturastat A) | log2 fold change (vemurafenib) | log2 fold change [5] | log2 fold change [6] | log2 fold change (givinostat) | log2 fold change (barasertib)
RPS19BP1 (UniProt Q86WX3) | inactive: 0.064 | inactive: -0.022 | inactive: -0.163 | inactive: -0.05 | inactive: 0.379 | inactive: -0.173 | inactive: 0.028 | inactive: 0.137 | inactive: -0.065 | inactive: 0.008
RNPS1 (UniProt Q15287) | inactive: -0.043 | inactive: 0.015 | inactive: 0.017 | inactive: 0.031 | inactive: 0.245 | inactive: -0.001 | inactive: -0.033 | inactive: -0.024 | inactive: 0.071 | inactive: 0.015
RNGTT (UniProt O60942) | inactive: 0.069 | inactive: -0.064 | inactive: 0.087 | inactive: 0.026 | inactive: -0.132 | inactive: 0.031 | inactive: 0.115 | inactive: 0.043 | inactive: 0.006 | inactive: 0.07
RPL3L (UniProt Q92901) | inactive: 0.107 | inactive: 0.022 | inactive: -0.044 | inactive: -0.089 | inactive: 0.147 | inactive: -0.325 | inactive: -0.083 | inactive: 0.299 | inactive: 0.048 | inactive: -0.186
RPS11 (UniProt P62280) | inactive: 0.011 | inactive: 0 | inactive: -0.119 | inactive: -0.046 | inactive: 0.227 | inactive: -0.172 | inactive: -0.127 | inactive: 0.156 | inactive: 0.015 | inactive: -0.113
RRAGC (UniProt Q9HB90) | inactive: 0.005 | inactive: 0.003 | inactive: 0.017 | inactive: 0.008 | inactive: -0.07 | inactive: -0.027 | inactive: 0.047 | inactive: -0.048 | inactive: 0.052 | inactive: -0.011
RRAS (UniProt P10301) | inactive: -0.006 | inactive: -0.006 | inactive: -0.028 | inactive: 0.026 | inactive: -0.087 | inactive: 0.027 | inactive: -0.005 | inactive: -0.014 | inactive: 0.026 | inactive: -0.035
RPS19 (UniProt P39019) | inactive: 0.008 | inactive: 0.007 | inactive: -0.054 | inactive: -0.009 | inactive: 0.121 | inactive: -0.07 | inactive: -0.066 | inactive: -0.039 | inactive: 0.013 | inactive: -0.083
RPL26L1 (UniProt Q9UNX3) | inactive: -0.022 | inactive: 0.02 | inactive: -0.1 | inactive: -0.133 | inactive: 0.198 | inactive: -0.15 | inactive: -0.103 | inactive: 0.16 | inactive: 0.015 | inactive: -0.097
RPS4X (UniProt P62701) | inactive: 0.019 | inactive: 0 | inactive: -0.027 | inactive: -0.055 | inactive: 0.214 | inactive: -0.106 | inactive: -0.08 | inactive: 0.213 | inactive: 0.021 | inactive: -0.101
RRAGA (UniProt Q7L523) | inactive: -0.031 | inactive: -0.059 | inactive: -0.068 | inactive: 0.108 | inactive: -0.036 | inactive: 0.037 | inactive: -0.042 | inactive: -0.04 | inactive: -0.366 | inactive: -0.089
RPL3 (UniProt P39023) | inactive: 0.016 | inactive: -0.009 | inactive: -0.068 | inactive: -0.23 | inactive: 0.375 | inactive: -0.322 | inactive: -0.102 | inactive: 0.288 | inactive: 0.154 | inactive: -0.204
RPRD1B (UniProt Q9NQG5) | inactive: 0.007 | inactive: -0.021 | inactive: -0.029 | inactive: 0.101 | inactive: -0.054 | inactive: 0.05 | inactive: 0.07 | inactive: -0.057 | inactive: -0.064 | inactive: 0.007
RPL13 (UniProt P26373) | inactive: 0.013 | inactive: -0.001 | inactive: -0.073 | inactive: -0.192 | inactive: 0.407 | inactive: -0.33 | inactive: -0.092 | inactive: 0.222 | inactive: 0.139 | inactive: -0.166
RPN1 (UniProt P04843) | inactive: 0.013 | inactive: 0.016 | inactive: 0.001 | inactive: 0.032 | inactive: -0.042 | inactive: -0.014 | inactive: 0.019 | inactive: -0.01 | inactive: 0.006 | inactive: 0.009
RPA3 (UniProt P35244) | inactive: 0.076 | inactive: -0.059 | inactive: 0.111 | inactive: 0.014 | inactive: 0.091 | active: 0.298 | inactive: 0.053 | inactive: -0.044 | inactive: -0.109 | inactive: 0.066
RPL29 (UniProt P47914) | inactive: 0.018 | inactive: -0.019 | inactive: -0.077 | inactive: -0.206 | inactive: 0.071 | inactive: -0.172 | inactive: 0 | inactive: 0.243 | inactive: 0.028 | inactive: -0.139
RPA2 isoform 3 (UniProt P15927) | inactive: 0.018 | inactive: 0.006 | inactive: 0.016 | inactive: 0.004 | inactive: 0.033 | inactive: -0.011 | inactive: -0.064 | inactive: -0.015 | inactive: 0.028 | inactive: -0.009
RPSA (UniProt P08865) | inactive: 0.001 | inactive: 0.021 | inactive: -0.014 | inactive: -0.028 | inactive: 0.044 | inactive: -0.018 | inactive: -0.019 | inactive: 0.036 | inactive: -0.028 | inactive: -0.013
RNH1 (UniProt P13489) | inactive: 0.04 | inactive: 0.001 | inactive: 0.017 | inactive: 0.071 | inactive: -0.065 | inactive: -0.011 | inactive: 0.039 | inactive: -0.03 | inactive: -0.062 | inactive: 0.019
ROCK2 (UniProt O75116) | inactive: 0.009 | inactive: -0.044 | inactive: -0.037 | inactive: 0.02 | inactive: -0.004 | inactive: 0.034 | inactive: -0.005 | inactive: -0.06 | inactive: 0.055 | inactive: 0.027
RPL26 (UniProt P61254) | inactive: 0.097 | inactive: 0.205 | inactive: -0.108 | inactive: -0.067 | inactive: 0.354 | inactive: -0.198 | inactive: -0.205 | inactive: 0.408 | inactive: -0.036 | inactive: -0.192
RPL12 (UniProt P30050) | inactive: -0.094 | inactive: 0 | inactive: -0.132 | inactive: -0.185 | inactive: 0.341 | inactive: -0.224 | inactive: -0.128 | inactive: 0.154 | inactive: 0.038 | inactive: -0.191
RO60 (UniProt P10155) | inactive: -0.046 | inactive: 0 | inactive: -0.005 | inactive: 0.046 | inactive: -0.146 | inactive: -0.037 | inactive: 0.006 | inactive: -0.046 | inactive: -0.037 | inactive: 0.004
RNF7 (UniProt Q9UBF6) | inactive: -0.016 | inactive: -0.038 | inactive: -0.055 | inactive: -0.008 | inactive: -0.039 | inactive: 0.037 | inactive: 0.054 | inactive: -0.065 | inactive: -0.057 | inactive: -0.032
RPL31 (UniProt P62899) | inactive: -0.005 | inactive: 0.01 | inactive: -0.086 | inactive: -0.075 | inactive: 0.168 | inactive: -0.145 | inactive: -0.15 | inactive: 0.092 | inactive: 0.031 | inactive: -0.149
RPL39P5 (UniProt Q59GN2) | inactive: -0.109 | inactive: -0.031 | inactive: -0.055 | inactive: -0.161 | inactive: 0.469 | inactive: -0.063 | inactive: 0.001 | inactive: 0.08 | inactive: 0.003 | inactive: -0.144

Another view of part of the listing above.
Target	log2 fold change [1]	log2 fold change [2]	log2 fold change [3]	log2 fold change [4]	log2 fold change (Nexturastat A)	log2 fold change (vemurafenib)	log2 fold change [5]	log2 fold change [6]	log2 fold change (givinostat)	log2 fold change (barasertib)
RNGTT (UniProt O60942)	inactive: 0.069	inactive: -0.064	inactive: 0.087	inactive: 0.026	inactive: -0.132	inactive: 0.031	inactive: 0.115	inactive: 0.043	inactive: 0.006	inactive: 0.07
RPL3L (UniProt Q92901)	inactive: 0.107	inactive: 0.022	inactive: -0.044	inactive: -0.089	inactive: 0.147	inactive: -0.325	inactive: -0.083	inactive: 0.299	inactive: 0.048	inactive: -0.186
RPS11 (UniProt P62280)	inactive: 0.011	inactive: 0	inactive: -0.119	inactive: -0.046	inactive: 0.227	inactive: -0.172	inactive: -0.127	inactive: 0.156	inactive: 0.015	inactive: -0.113
RRAGC (UniProt Q9HB90)	inactive: 0.005	inactive: 0.003	inactive: 0.017	inactive: 0.008	inactive: -0.07	inactive: -0.027	inactive: 0.047	inactive: -0.048	inactive: 0.052	inactive: -0.011
RRAS (UniProt P10301)	inactive: -0.006	inactive: -0.006	inactive: -0.028	inactive: 0.026	inactive: -0.087	inactive: 0.027	inactive: -0.005	inactive: -0.014	inactive: 0.026	inactive: -0.035
